Measurements as given in patent publication US20240024514A1, “RECOMBINANT ADENO-[…] WITH ENHANCED LIVER TROPISM AND USES THEREOF” (priority 2020, published 2024).
At least one structure is not confirmed: it was looked up by name or label, or the drawing left a doubt.

Experiments:
HBV HBsAg = test: suppression of HBV HBsAg in HepG2.2.15 cells; assay type: cell-based, Hepatitis B virus; conditions: 1 ug/mL
Experimental: (§1) scAAV2/X-H1-shRNA-intron2 and scAAV2/8-H1-shRNA-intron2 were used to infect HepG2.2.15 cells with increased Multiplicity of Infection (MOI). The levels of HBV HBeAg, HBV HBsAg, and HBV DNA in samples were measured by HBV HBeAg diagnostic kit (Beijing Wantai Biopharmaceuticals Ltd. Co.), HBV HBsAg diagnostic kit (Beijing Wantai Biopharmaceuticals Ltd. Co.), and HBV nucleotide quantification kit (QIAGEN), respectively. 1 ug/mL of Lamivudine (LAM) was used as a positive control in the experiments. scAAV2/X-H1-NC-intron2 (X-NC) and scAAV2/8-H1-NC-intron2 (8-NC) were used as negative controls. […] The sample was collected every day for nine days and analyzed for the levels of HBeAg, HbsAg, and HBV DNA.

HBV HBeAg = test: suppression of HBV HBeAg in HepG2.2.15 cells; assay type: cell-based, Hepatitis B virus; conditions: 1 ug/mL
Experimental: as §1

Nc1ccn([C@@H]2CS[C@H](CO)O2)c(=O)n1 [Lamivudine]
suppression of HBsAg (HBV HBsAg): did not result in significant suppression of HBsAg
suppression of HBeAg (HBV HBeAg): did not result in significant suppression of HBeAg
